Reference: patent publication US7270767B1, “Environmentally friendly de-icer and anti-icer compositions” (priority 1999, dated 2007)

Test: Plastic crazing test
Settings: ASTM F 484, MIL-P-83310 polycarbonate; for Plastic crazing, Results: MIL-PRF-25690 acrylic

| Structure (SMILES) | Plastic crazing, Results | Plastic crazing on polycarbonate | Plastic crazing, Results (listed as Triethylene glycol (99% pure)) |
| --- | --- | --- | --- |
| OCC(O)CO [Glycerol] | No crazing | – | – |
| CC(O)CO (centres unmarked) [Propylene glycol, reference compound] | Slight | – | – |
| OCCOCCOCCO [Triethylene glycol] | slight crazing of acrylic plastic | acrylic; no | Crazed |
